# Test results: the supplement of paper PMC12872613
# Where a name gives a salt, the structure may show the parent alone. The list shows a part of the results. Rule as the data show it: active = 0.7 or more and inactive = the rest. Most values come without repeats; read them as rough.
# System: MiaPaCa-2 CLSA-25
# Test: cell death relative to DMSO vehicle (fraction); higher = more cytotoxic
# Details: 5 µM; treatment time 48 h; medium cystine 25 µM
row,SMILES,cell death
1,CCCCNC(=O)NS(=O)(=O)c1ccc(C)cc1 [Tolbutamide],inactive: 0.209
2,CC(C)[C@H]1CC[C@H](C(=O)N[C@H](Cc2ccccc2)C(=O)O)CC1 [Nateglinide],inactive: 0.175
3,CC(=O)OCC(=O)[C@@]12N=C(C)O[C@@H]1C[C@H]1[C@@H]3CCC4=CC(=O)C=C[C@]4(C)[C@H]3[C@@H](O)C[C@@]12C [Deflazacort],inactive: 0.123
4,C[C@@H]1CC(=O)NN=C1c1ccc(NN=C(C#N)C#N)cc1 [Levosimendan],inactive: 0.378
5,N=C(N)Nc1ccc(C(=O)Oc2ccc3cc(C(=N)N)ccc3c2)cc1 [Nafamostat mesylate],inactive: 0.124
6,COC(=O)[C@H](CC(C)C)NC(=O)c1ccc(NC[C@@H](N)CS)cc1-c1cccc2ccccc12,inactive: 0.117
7,NNC(=O)c1ccncc1.Nc1ccc(C(=O)O)c(O)c1 [Pasiniazid],inactive: 0.228
8,COc1ccc(C(C)=O)c(O)c1 [Paeonol],inactive: 0.0407
9,Cc1c(C)c2c(c(C)c1O)CCC(C)(COc1ccc(CC3SC(=O)NC3=O)cc1)O2 (centres undefined) [Troglitazone],active: 0.807
10,NCc1c[nH]c(=S)n1[C@H]1CCc2c(F)cc(F)cc2C1 [Nepicastat HCl],inactive: 0.181
11,OCCN(CCO)c1nc(N2CCCCC2)c2nc(N(CCO)CCO)nc(N3CCCCC3)c2n1 [Dypyridamole],inactive: 0.303
12,NNc1nncc2ccccc12 [Hydralazine hydrochloride],inactive: 0.166
13,NC(=O)NCCC[C@H](N)C(=O)O [L-Citrulline],inactive: 0.152
14,CN1CC(=O)N2[C@H](c3ccc4c(c3)OCO4)c3[nH]c4ccccc4c3C[C@@H]2C1=O [Tadalafil],inactive: 0.0768
15,Oc1cc(O)c(Cl)cn1 [Gimeracil],active: 0.881
16,CN1CCN(Cc2ccc(-c3cnc4[nH]cc(-c5ccc6[nH]ccc6c5)c4c3)cc2)CC1,active: 0.849
17,O[C@@H]1[C@@H](O)[C@@H](OC/C=C/c2ccccc2)O[C@H](CO[C@@H]2OC[C@H](O)[C@H](O)[C@H]2O)[C@H]1O [Rosavin],inactive: 0.615
18,CCCC(C)NC(=O)c1ccc(Cl)c(Cl)c1 (centres undefined),inactive: 0.17
19,CC(=O)OCC(=O)[C@@]1(O)CC[C@H]2[C@@H]3CCC4=CC(=O)CC[C@]4(C)[C@H]3[C@@H](O)C[C@@]21C [Hydrocortisone acetate],inactive: -0.00642
20,O=C(O)c1cc(F)c2nc(N3[C@@H]4CC[C@H]3C[C@@H](OCc3c(-c5ccccc5OC(F)(F)F)noc3C3CC3)C4)sc2c1 [Tropifexor],inactive: 0.598

# Given with bars between the fields: entries from further up
row | SMILES | cell death
3 | CC(=O)OCC(=O)[C@@]12N=C(C)O[C@@H]1C[C@H]1[C@@H]3CCC4=CC(=O)C=C[C@]4(C)[C@H]3[C@@H](O)C[C@@]12C [Deflazacort] | inactive: 0.123
17 | O[C@@H]1[C@@H](O)[C@@H](OC/C=C/c2ccccc2)O[C@H](CO[C@@H]2OC[C@H](O)[C@H](O)[C@H]2O)[C@H]1O [Rosavin] | inactive: 0.615
19 | CC(=O)OCC(=O)[C@@]1(O)CC[C@H]2[C@@H]3CCC4=CC(=O)CC[C@]4(C)[C@H]3[C@@H](O)C[C@@]21C [Hydrocortisone acetate] | inactive: -0.00642

# The list goes on.

row,SMILES,cell death
1,Cc1coc2c1C(=O)C(=O)c1c-2ccc2c(C)cccc12 [Tanshinone I],inactive: 0.0169
2,Cc1cnc(Nc2ccc(N3CCN(C)CC3)cc2)nc1Nc1cccc(S(=O)(=O)NC(C)(C)C)c1,active: 0.779
3,C#CCN[C@@H]1CCc2ccccc21 [Rasagiline],inactive: 0.146
4,C[N+](C)(C)CCO.[Cl-] [Choline chloride],inactive: 0.634
5,C[C@H]1C[C@H]2[C@@H]3CCC4=CC(=O)C=C[C@]4(C)[C@@]3(F)[C@@H](O)C[C@]2(C)[C@@]1(O)C(=O)CO [Betamethasone],inactive: 0.102
6,O=C(O)CNC(=O)C1C(=O)N(C2CCCCC2)C(=O)N(C2CCCCC2)C1=O [Daprodustat],inactive: 0.544
7,CC[C@H](CC#N)OC(=O)N[C@@H](C)c1cccc(NC(=O)Nc2ccc(-c3cnco3)c(OC)c2)c1,inactive: 0.333
8,CC(C)=CCC/C(C)=C/CC/C(C)=C/CC/C(C)=C/CC1=C(C)C(=O)c2ccccc2C1=O [Menatetrenone],inactive: 0.114
9,O=c1cc(-c2ccc(O)c(O)c2)oc2cc(O)cc(O)c12 [Luteolin],inactive: 0.208
10,CC(C)(Sc1ccncc1-c1ccc(C#N)c2ccccc12)C(=O)O [Verinurad],inactive: 0.326
11,CCCCCCCCCCC[C@@H](C[C@@H]1OC(=O)[C@H]1CCCCCC)OC(=O)[C@H](CC(C)C)NC=O [Orlistat],inactive: 0.362
12,O=S(=O)(NCCSSCCNS(=O)(=O)c1cc(Cl)ccc1Cl)c1cc(Cl)ccc1Cl,inactive: 0.583
13,COc1ccc(-n2nc(C(N)=O)c3c2C(=O)N(c2ccc(N4CCCCC4=O)cc2)CC3)cc1 [Apixaban],inactive: 0.0693
14,NS(=O)(=O)c1cc2c(cc1Cl)NC(C(Cl)Cl)NS2(=O)=O (centres undefined) [Trichlormethiazide],inactive: -0.00986
15,CCC(=O)O[C@@H](O[P@](=O)(CCCCc1ccccc1)CC(=O)N1C[C@H](C2CCCCC2)C[C@H]1C(=O)O)C(C)C [Fosinopril sodium],inactive: 0.16
16,O=C(c1ccc(NS(=O)(=O)c2cccc3cccnc23)cc1)N1CCN(CC2CC2)CC1 [Mitapivat],inactive: 0.277
17,CC(S)C(=O)NCC(=O)O (centres undefined) [Tiopronin],inactive: 0.182
18,O=S(=O)(c1ccccc1)N(CC(F)(F)F)c1ccc(C(O)(C(F)(F)F)C(F)(F)F)cc1,inactive: 0.492
19,N=C(N)NCCN1CCCCCCC1 [Guanethidine Monosulfate],inactive: 0.573
